The text below walks through data of the supplement of paper PMC10849652.

Sequences of proteins named here, by UniProt entry; tags and fusion partners are left off. A change or cut given only in a name is not applied to a line headed by its entry.
UniProt P31995: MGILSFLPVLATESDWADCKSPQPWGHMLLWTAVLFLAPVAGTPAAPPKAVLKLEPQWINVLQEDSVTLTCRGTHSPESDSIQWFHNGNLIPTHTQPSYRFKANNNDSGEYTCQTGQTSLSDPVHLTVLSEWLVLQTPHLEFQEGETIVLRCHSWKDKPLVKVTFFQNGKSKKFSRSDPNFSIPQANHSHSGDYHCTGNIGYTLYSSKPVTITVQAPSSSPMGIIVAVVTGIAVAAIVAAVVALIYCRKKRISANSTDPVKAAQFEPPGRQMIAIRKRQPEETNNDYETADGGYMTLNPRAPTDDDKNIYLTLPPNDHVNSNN
UniProt Q96ND0: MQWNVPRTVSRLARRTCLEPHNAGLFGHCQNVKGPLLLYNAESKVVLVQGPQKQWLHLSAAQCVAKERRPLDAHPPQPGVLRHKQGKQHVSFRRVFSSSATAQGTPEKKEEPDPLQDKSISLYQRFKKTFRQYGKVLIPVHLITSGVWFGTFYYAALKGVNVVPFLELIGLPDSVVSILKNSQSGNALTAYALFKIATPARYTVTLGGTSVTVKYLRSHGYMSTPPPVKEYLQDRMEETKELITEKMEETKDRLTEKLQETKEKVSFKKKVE
UniProt Q5T1M5: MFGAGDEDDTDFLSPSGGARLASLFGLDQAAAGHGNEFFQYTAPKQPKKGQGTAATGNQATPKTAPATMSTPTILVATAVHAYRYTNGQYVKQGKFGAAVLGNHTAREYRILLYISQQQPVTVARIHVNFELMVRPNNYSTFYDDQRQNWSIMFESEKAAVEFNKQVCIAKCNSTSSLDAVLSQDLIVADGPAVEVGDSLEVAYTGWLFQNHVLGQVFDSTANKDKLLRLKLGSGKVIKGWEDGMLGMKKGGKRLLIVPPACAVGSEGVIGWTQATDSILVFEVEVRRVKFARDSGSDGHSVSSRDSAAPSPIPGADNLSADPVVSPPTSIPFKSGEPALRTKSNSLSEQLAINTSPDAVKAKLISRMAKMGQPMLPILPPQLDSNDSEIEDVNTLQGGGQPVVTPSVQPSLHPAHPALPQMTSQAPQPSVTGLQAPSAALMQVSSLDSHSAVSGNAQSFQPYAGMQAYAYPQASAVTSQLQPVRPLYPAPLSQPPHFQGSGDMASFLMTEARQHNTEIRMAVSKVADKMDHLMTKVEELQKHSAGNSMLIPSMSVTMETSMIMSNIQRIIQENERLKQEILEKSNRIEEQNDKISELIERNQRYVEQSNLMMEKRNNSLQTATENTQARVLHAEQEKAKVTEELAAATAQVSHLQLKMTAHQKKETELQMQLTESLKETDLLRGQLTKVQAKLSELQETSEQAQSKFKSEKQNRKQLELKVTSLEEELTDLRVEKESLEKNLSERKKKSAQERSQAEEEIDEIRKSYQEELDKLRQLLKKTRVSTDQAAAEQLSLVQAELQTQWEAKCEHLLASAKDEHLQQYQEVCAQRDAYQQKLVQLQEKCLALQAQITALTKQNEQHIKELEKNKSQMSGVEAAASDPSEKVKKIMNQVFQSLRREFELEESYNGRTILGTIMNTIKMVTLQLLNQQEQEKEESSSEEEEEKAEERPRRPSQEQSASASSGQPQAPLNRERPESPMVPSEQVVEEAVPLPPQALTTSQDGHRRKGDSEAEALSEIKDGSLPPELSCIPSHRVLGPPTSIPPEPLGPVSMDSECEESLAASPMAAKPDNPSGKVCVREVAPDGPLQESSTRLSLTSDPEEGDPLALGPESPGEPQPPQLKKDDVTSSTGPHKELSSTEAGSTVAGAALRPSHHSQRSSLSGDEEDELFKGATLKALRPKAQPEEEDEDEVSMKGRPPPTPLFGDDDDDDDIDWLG
UniProt Q13045: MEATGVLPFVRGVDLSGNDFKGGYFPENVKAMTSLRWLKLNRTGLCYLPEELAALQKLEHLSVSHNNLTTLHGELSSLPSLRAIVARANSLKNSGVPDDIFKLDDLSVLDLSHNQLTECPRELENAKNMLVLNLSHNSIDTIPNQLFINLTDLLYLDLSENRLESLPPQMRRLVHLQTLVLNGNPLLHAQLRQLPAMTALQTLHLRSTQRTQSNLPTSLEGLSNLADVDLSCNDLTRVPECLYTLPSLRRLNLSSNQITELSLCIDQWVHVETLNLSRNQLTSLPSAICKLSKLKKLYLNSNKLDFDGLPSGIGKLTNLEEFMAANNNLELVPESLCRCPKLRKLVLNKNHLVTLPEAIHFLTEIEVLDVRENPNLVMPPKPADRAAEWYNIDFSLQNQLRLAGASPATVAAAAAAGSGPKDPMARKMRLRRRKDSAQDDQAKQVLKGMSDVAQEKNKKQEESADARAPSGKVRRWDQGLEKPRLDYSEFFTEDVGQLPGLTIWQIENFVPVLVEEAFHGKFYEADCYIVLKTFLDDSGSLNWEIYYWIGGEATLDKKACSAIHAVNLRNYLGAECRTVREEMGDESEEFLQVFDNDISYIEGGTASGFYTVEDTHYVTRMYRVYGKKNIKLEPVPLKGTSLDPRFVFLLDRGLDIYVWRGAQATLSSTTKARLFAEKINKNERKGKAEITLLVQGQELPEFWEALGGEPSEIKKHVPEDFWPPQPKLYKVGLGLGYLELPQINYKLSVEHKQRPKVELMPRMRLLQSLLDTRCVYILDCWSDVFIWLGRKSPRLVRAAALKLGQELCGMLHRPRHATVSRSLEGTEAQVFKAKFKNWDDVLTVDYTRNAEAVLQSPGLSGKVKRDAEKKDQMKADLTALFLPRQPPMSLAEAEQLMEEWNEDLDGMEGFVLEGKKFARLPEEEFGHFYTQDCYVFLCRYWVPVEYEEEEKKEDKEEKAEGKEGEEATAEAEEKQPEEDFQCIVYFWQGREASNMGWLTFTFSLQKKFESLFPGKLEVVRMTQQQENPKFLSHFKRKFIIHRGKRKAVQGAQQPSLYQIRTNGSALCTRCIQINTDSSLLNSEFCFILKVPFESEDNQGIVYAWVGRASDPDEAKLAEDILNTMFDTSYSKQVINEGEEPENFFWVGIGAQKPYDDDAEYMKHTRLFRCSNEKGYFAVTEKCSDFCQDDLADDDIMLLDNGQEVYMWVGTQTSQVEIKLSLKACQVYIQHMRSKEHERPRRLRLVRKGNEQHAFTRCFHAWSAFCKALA
UniProt Q96IG2: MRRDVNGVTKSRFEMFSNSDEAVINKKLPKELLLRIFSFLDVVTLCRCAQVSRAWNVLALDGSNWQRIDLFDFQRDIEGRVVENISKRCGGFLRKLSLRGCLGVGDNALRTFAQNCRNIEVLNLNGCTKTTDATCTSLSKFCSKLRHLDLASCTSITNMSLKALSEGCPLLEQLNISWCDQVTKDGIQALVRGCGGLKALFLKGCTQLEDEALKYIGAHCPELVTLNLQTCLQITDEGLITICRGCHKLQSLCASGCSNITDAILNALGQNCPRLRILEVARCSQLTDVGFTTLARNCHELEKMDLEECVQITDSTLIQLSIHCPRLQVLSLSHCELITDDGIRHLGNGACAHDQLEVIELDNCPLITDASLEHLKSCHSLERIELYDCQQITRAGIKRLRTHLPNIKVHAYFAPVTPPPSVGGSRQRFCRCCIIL
UniProt Q96CP2: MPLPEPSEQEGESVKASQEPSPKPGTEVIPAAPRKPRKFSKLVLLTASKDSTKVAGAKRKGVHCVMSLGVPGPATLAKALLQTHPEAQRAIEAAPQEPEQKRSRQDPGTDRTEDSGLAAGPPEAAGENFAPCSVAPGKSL
UniProt P49327, whole entry, looked up: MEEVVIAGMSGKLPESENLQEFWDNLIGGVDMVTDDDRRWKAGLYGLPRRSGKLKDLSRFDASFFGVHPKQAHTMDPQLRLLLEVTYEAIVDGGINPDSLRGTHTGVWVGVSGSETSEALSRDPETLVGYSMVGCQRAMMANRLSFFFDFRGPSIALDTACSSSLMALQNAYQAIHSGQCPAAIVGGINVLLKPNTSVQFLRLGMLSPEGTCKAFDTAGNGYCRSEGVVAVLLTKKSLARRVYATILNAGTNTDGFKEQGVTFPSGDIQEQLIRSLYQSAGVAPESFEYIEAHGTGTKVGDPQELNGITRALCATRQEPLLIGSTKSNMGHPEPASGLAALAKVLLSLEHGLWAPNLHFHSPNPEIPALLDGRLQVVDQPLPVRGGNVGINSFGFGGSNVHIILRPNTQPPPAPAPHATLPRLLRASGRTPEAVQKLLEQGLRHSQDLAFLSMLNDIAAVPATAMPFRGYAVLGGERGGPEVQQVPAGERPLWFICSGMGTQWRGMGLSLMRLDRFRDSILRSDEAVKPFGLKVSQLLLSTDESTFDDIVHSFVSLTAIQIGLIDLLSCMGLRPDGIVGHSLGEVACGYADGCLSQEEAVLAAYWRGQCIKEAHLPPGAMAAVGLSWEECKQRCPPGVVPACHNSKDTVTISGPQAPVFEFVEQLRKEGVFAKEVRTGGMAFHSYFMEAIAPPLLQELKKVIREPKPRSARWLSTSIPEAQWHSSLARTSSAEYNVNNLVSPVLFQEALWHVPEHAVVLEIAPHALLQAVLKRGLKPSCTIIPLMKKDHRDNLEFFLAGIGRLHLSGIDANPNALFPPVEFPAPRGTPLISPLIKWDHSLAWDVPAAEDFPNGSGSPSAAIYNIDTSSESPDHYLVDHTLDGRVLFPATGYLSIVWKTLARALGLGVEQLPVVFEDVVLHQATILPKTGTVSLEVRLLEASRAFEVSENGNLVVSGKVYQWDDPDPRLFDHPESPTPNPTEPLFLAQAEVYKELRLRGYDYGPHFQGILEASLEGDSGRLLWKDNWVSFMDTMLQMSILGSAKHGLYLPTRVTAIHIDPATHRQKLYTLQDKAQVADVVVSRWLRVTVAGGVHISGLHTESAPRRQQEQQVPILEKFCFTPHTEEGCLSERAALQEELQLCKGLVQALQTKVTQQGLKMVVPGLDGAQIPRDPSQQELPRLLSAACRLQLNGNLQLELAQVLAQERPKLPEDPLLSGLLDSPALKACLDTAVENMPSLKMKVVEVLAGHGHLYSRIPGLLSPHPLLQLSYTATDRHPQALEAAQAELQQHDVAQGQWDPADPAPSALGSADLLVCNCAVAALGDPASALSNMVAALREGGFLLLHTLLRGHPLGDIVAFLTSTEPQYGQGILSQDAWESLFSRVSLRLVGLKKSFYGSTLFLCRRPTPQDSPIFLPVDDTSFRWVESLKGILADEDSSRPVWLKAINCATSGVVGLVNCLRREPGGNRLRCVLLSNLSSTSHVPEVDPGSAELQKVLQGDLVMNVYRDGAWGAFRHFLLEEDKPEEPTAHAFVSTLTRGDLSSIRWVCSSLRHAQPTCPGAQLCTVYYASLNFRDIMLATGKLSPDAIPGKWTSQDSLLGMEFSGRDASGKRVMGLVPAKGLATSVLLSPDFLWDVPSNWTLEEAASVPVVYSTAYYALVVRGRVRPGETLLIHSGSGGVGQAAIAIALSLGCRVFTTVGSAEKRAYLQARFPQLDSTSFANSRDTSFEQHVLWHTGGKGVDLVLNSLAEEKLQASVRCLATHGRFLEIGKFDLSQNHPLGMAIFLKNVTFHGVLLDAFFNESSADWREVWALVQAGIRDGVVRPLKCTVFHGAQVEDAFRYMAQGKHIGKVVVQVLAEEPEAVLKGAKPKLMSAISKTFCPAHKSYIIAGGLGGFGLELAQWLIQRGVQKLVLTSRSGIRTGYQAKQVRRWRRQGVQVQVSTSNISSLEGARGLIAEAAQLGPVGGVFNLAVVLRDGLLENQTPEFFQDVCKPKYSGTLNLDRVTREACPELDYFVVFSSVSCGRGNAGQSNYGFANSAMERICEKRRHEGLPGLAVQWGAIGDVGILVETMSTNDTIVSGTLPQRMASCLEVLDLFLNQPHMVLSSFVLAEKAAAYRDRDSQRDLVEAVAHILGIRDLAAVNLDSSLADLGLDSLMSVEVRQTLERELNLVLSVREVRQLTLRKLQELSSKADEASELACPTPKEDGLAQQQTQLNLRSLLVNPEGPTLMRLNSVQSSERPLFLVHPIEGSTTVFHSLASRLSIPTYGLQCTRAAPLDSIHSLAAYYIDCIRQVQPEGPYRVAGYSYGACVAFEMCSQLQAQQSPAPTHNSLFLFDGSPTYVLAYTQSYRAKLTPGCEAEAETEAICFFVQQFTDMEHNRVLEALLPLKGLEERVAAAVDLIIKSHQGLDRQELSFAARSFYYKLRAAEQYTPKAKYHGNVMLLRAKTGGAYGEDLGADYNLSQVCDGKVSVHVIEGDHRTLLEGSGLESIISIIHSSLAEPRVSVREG
UniProt P62942, whole entry, looked up: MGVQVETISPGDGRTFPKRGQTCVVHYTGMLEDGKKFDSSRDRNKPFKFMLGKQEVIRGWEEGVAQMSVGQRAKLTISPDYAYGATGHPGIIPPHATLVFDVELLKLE
UniProt Q6P4F2: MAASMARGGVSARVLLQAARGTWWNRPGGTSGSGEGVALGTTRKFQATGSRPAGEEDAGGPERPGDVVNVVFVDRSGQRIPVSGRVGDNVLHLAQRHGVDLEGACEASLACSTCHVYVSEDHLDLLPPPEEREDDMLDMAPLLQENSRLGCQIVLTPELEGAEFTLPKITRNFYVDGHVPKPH
UniProt Q9Y421: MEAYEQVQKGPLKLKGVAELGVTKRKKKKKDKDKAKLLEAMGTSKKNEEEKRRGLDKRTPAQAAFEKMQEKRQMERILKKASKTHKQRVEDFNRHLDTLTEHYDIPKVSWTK

Some of the results follow.

Compound in this test: CCn1cc(-c2ccnc3[nH]c(-c4cccc(CN(C)C)c4)cc23)c(-c2ccc(NC(=O)N(C)C)cc2)n1
The test can be described thus: log2 fold change, soluble protein after heating vs DMSO (PISA); higher = thermal stabilisation; K562 cells, 10 uM, 30 min; active = over 0.2 and 3.5 SD of the protein, either way, in both replicates (recomputed). In short, it runs like this:
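Aliquots of K562 cells (2×10^6 cells/mL) treated with 10 μM compound for 30 min were heated for 3 min over 48°C-58°C. After pooling and extraction in PBS with 0.5% NP-40 at 4°C, soluble protein from a 21,000xg, 90 min spin was quantified by TMTpro 16plex LC-MS/MS with channel sums equalised. Thermal stability is expressed against control samples, from duplicates, as a log2 fold change.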
As for FDX1 (UniProt P10109), the log2 fold change is inactive: -0.018.

For FBXL12 (UniProt Q9NXK8), the log2 fold change was inactive: 0.02.

Regarding FKBPL (UniProt Q9UIM3), the log2 fold change was inactive: -0.047.

Turning to FCGR2C (UniProt P31995), the log2 fold change was inactive: -0.033.

FANCB (UniProt Q8NB91): the log2 fold change is inactive: 0.034.

With FIP1L1 (UniProt Q6UN15), the log2 fold change is inactive: 0.093.

Consider FLVCR1 (UniProt Q9Y5Y0), for which the log2 fold change was inactive: -0.001.

Regarding FAM49B (UniProt Q9NUQ9), the log2 fold change was inactive: -0.031.

For FAM210A (UniProt Q96ND0), the log2 fold change is inactive: -0.015.

Consider FBXO30 (UniProt Q8TB52), for which the log2 fold change is inactive: -0.065.

On to FKBP2 (UniProt P26885), for which the log2 fold change was inactive: -0.058.

FKBP15 (UniProt Q5T1M5): the log2 fold change was inactive: -0.018.

Turning to FAR1 (UniProt Q8WVX9), the log2 fold change is inactive: 0.037.

FH (UniProt P07954): the log2 fold change was inactive: -0.107.

Regarding FLII (UniProt Q13045), the log2 fold change is inactive: -0.026.

As to FNBP4 isoform 2 (UniProt Q8N3X1), the log2 fold change is inactive: -0.006.

Regarding FAM98B (UniProt Q52LJ0), the log2 fold change is inactive: 0.022.

FBXL20 (UniProt Q96IG2): the log2 fold change was inactive: -0.119.

As to FBXL18 isoform 4 (UniProt Q96ME1), the log2 fold change is inactive: -0.075.

For the target FLYWCH2 (UniProt Q96CP2), the log2 fold change is inactive: -0.003.

As to FAM76B (UniProt Q5HYJ3), the log2 fold change was inactive: -0.046.

On to FASN (UniProt P49327), for which the log2 fold change is inactive: -0.065.

In the case of FKBP1A (UniProt P62942), the log2 fold change was inactive: -0.209.

On to FBLL1 (UniProt A6NHQ2), for which the log2 fold change is inactive: 0.26.

As for FBXO5 (UniProt Q9UKT4), the log2 fold change is inactive: -0.063.

In the case of FARSB (UniProt Q9NSD9), the log2 fold change is inactive: -0.019.

On to FLOT1 (UniProt O75955), for which the log2 fold change is inactive: 0.153.

Regarding FCSK isoform 2 (UniProt Q8N0W3), the log2 fold change was inactive: -0.029.

Turning to FBXO22 (UniProt Q8NEZ5), the log2 fold change is inactive: -0.06.

For the target FN3K (UniProt Q9H479), the log2 fold change was inactive: -0.034.

Consider FCGR2A (UniProt P12318), for which the log2 fold change is inactive: -0.133.

FN3KRP (UniProt Q9HA64): the log2 fold change is inactive: -0.016.

As for FAM98A (UniProt Q8NCA5), the log2 fold change was inactive: -0.064.

In the case of FKBP9 (UniProt O95302), the log2 fold change was inactive: 0.035.

As for FAU (UniProt P62861), the log2 fold change is inactive: 0.166.

For FKBP5 (UniProt Q13451), the log2 fold change is inactive: -0.009.

As to FDX2 (UniProt Q6P4F2), the log2 fold change was inactive: 0.005.

In the case of FAM32A (UniProt Q9Y421), the log2 fold change is inactive: 0.154.
